# Results taken from the supplement of paper PMC10849652.
# Chains of the proteins cited; added tags and fusions are not shown. Lines headed by an entry give the natural chain unless they say otherwise; changes in a name come on top.
# UniProt Q9Y3C1: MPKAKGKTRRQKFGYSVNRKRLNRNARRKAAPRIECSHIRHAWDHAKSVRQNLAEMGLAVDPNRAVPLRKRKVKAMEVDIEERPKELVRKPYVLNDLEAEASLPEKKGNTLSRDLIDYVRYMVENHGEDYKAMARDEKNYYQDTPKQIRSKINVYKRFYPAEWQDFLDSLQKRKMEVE
# UniProt O75607: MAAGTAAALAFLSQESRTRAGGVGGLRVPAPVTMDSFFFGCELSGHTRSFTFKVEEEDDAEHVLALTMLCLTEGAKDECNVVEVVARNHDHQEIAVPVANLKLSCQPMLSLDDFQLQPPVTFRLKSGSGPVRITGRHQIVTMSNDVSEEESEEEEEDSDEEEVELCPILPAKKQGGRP
# UniProt P50583: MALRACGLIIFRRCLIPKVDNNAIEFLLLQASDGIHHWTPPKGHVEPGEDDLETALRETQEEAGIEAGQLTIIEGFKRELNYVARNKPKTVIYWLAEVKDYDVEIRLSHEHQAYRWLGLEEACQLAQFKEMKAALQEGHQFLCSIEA
# UniProt P49116: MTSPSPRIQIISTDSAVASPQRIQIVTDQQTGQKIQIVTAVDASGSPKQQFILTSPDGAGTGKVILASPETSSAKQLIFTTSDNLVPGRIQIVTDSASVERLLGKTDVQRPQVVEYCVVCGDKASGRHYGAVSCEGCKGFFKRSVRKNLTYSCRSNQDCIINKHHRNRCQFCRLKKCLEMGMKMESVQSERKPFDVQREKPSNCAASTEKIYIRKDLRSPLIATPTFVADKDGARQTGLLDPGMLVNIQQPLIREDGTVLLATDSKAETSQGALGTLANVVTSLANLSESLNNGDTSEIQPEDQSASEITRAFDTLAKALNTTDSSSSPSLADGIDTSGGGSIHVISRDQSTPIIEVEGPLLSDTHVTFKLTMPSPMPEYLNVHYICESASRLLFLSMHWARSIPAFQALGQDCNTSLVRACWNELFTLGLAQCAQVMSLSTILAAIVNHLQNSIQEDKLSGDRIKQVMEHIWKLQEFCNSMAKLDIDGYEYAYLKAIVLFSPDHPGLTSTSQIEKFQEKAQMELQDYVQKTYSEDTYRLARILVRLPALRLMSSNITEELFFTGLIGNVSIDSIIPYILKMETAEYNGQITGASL
# UniProt O75414: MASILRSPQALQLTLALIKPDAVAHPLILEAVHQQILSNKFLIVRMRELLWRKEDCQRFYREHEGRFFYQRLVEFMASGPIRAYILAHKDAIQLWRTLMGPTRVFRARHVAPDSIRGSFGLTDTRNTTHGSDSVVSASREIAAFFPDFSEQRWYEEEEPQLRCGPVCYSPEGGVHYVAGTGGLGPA
# UniProt P06748, whole entry, looked up: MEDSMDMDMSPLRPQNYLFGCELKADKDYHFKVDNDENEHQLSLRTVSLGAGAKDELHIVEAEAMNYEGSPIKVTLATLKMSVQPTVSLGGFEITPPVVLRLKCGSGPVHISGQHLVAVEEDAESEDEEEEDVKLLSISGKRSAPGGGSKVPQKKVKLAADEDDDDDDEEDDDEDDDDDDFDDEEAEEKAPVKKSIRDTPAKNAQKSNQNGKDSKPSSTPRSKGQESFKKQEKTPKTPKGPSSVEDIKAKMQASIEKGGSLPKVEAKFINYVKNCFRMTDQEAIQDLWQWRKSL
# UniProt Q02818: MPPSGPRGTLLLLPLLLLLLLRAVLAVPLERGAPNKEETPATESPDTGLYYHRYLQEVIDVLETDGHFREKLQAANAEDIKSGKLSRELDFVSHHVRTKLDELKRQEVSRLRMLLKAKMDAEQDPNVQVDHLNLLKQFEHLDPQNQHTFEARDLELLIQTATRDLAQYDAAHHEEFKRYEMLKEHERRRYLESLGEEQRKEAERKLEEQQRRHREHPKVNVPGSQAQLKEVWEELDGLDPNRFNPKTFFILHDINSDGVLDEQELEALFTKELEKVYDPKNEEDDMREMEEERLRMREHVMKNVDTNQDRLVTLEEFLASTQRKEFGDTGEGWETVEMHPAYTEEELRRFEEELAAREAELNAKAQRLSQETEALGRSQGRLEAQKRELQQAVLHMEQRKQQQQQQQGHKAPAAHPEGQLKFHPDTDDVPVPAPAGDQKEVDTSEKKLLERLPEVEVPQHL
# UniProt P0C024: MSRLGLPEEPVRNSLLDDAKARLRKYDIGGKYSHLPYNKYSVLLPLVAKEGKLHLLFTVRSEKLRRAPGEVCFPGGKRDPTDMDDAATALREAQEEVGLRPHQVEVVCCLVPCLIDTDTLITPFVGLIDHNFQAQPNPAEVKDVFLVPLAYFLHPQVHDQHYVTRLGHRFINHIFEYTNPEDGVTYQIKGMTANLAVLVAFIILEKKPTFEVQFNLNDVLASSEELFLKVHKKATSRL
# UniProt Q96D46: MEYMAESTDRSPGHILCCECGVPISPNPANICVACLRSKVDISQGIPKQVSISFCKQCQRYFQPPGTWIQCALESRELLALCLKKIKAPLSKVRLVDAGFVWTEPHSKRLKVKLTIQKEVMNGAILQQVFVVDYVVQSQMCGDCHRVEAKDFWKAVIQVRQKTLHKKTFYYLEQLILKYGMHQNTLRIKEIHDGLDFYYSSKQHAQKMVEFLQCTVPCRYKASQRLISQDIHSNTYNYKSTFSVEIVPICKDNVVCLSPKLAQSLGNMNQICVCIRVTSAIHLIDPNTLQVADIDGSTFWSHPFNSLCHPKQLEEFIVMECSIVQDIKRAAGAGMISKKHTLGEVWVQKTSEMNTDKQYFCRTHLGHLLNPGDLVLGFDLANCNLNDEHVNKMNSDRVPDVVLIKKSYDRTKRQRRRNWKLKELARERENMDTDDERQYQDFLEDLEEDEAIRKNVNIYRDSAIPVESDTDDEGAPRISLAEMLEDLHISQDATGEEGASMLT
# UniProt Q86UY8: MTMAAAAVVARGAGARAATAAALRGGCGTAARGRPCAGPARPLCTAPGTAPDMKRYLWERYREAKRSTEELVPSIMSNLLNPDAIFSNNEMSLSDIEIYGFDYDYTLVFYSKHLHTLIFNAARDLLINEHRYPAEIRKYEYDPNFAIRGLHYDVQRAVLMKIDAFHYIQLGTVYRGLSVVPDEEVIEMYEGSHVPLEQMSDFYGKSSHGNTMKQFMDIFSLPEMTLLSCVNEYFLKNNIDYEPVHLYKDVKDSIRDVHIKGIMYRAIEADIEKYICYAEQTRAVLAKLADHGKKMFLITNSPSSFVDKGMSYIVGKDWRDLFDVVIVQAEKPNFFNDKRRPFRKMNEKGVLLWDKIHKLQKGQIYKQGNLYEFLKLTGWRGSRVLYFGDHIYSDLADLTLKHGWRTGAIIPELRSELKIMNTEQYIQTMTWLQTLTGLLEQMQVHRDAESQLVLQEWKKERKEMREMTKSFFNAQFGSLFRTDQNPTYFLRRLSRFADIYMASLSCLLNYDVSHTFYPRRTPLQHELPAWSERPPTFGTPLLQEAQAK
# UniProt Q9H1E3: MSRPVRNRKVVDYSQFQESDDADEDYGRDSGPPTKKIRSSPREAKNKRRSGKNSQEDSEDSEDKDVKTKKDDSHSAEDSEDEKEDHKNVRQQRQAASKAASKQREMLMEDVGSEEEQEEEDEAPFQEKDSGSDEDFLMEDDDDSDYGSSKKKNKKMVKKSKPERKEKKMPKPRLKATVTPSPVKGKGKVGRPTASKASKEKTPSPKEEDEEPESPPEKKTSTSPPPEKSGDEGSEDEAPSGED
# UniProt Q15738: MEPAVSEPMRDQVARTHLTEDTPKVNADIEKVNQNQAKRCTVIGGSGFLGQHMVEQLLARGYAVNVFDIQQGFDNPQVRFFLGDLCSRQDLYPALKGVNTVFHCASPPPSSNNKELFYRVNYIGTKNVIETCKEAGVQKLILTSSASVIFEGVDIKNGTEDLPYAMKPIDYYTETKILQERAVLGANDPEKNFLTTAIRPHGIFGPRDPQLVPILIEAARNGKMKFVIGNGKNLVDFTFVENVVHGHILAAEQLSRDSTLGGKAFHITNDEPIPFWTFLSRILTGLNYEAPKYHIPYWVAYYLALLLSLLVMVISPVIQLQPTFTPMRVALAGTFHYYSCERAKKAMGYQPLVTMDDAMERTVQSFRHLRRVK
# UniProt Q96MF7: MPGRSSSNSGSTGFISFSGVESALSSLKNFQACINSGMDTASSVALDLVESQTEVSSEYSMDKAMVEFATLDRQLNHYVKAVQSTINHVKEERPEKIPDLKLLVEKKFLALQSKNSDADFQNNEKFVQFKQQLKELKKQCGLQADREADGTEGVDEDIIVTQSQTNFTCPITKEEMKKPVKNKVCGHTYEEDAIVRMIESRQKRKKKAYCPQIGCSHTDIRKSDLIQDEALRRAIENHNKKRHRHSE
# UniProt P30419: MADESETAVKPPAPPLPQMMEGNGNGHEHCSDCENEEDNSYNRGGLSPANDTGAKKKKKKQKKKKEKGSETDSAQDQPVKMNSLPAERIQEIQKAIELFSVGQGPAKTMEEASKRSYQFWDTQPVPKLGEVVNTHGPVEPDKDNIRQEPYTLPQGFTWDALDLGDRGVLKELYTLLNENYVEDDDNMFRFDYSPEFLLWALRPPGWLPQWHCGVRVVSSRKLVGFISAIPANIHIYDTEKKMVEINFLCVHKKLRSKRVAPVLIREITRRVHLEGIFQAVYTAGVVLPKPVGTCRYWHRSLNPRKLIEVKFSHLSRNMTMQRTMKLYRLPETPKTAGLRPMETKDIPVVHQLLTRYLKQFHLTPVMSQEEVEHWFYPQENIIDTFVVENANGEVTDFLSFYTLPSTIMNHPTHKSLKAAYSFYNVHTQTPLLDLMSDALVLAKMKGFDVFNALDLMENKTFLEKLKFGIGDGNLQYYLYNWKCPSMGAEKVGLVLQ
# UniProt Q13287: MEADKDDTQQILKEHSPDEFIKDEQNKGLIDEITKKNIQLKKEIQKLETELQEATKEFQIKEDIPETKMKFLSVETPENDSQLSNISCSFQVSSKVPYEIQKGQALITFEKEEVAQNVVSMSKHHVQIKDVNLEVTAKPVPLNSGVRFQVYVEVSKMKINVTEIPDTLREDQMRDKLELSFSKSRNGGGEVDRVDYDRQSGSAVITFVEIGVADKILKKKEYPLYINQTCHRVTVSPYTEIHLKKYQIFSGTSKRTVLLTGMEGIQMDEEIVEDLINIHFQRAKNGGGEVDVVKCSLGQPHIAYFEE
# UniProt Q13423: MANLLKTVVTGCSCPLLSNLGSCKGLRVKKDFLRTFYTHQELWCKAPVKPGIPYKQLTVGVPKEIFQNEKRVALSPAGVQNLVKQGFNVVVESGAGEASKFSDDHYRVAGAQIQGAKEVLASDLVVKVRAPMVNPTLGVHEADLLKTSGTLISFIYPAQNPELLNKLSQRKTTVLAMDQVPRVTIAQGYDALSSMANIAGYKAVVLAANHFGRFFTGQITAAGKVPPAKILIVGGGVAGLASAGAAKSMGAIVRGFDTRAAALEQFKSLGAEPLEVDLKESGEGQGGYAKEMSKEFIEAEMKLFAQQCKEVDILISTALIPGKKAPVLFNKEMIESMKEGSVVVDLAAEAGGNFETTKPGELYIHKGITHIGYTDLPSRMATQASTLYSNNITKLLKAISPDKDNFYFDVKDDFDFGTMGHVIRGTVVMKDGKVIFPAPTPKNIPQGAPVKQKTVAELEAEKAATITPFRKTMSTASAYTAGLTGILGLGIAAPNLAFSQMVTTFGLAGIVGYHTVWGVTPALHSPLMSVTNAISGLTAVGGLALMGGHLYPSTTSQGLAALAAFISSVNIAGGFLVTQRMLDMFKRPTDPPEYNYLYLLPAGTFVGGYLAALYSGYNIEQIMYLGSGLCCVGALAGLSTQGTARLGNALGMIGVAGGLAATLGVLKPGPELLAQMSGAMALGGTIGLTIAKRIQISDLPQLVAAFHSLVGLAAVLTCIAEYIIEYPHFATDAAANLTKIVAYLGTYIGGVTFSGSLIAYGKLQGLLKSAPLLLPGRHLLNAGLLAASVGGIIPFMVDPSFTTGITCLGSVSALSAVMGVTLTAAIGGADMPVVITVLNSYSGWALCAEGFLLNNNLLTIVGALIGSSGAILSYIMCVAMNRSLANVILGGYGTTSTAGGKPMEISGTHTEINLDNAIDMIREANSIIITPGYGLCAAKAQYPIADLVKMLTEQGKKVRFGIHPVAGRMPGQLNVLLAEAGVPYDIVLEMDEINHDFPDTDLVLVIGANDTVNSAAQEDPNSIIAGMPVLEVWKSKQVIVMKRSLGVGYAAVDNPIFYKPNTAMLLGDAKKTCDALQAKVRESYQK
# UniProt Q9ULX3: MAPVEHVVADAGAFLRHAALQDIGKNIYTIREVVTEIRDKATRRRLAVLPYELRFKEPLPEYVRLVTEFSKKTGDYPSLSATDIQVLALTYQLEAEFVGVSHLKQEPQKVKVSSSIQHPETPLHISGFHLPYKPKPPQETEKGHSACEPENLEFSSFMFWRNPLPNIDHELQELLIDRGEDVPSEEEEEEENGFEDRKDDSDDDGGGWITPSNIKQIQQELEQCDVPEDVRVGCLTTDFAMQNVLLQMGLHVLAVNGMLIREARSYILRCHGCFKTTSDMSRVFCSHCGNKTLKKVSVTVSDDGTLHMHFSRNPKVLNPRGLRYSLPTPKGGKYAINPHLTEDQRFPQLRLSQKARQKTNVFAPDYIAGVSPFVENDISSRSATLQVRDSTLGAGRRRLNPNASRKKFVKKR
# The list shows a part of the results.
# Experiments:
# Test in all cases: log2 fold change, soluble protein after heating vs DMSO (PISA); higher = thermal stabilisation; K562 lysate, 10 uM; active = over 0.2 and 3.5 SD of the protein, either way, in both replicates (recomputed)
# lapatinib = compound: CS(=O)(=O)CCNCc1ccc(-c2ccc3ncnc(Nc4ccc(OCc5cccc(F)c5)c(Cl)c4)c3c2)o1 [lapatinib]
# Procedure, shortened: (§1)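 To prepare the extract, K562 pellets were dounce-homogenised in PBS pH 7.4 with 1 mM MgCl2, giving crude material at 1 mg/mL protein. This was treated with 10 μM compound for 30 min, then heated in aliquots for 3 min over 48°C-58°C before pooling and addition of NP-40 to 0.5% at 4°C. Centrifugation at 21,000xg for 90 min left soluble protein in the supernatant, which TMTpro 16plex LC-MS/MS quantified with equalised channel sums. Results are log-two fold changes in thermal stability compared with solvent controls, from duplicates.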
# pictilisib = compound: CS(=O)(=O)N1CCN(Cc2cc3nc(-c4cccc5[nH]ncc45)nc(N4CCOCC4)c3s2)CC1 [pictilisib]
# Procedure, shortened: as §1
# crizotinib = compound: C[C@@H](Oc1cc(-c2cnn(C3CCNCC3)c2)cnc1N)c1c(Cl)ccc(F)c1Cl [crizotinib]
# Procedure, shortened: as §1
# [1] = compound: C[C@H](C1=CC=C(C=C1)C(=O)NC2=C3C=CNC3=NC=C2)N
# Procedure, shortened: as §1
# duvelisib = compound: C[C@H](Nc1ncnc2nc[nH]c12)c1cc2cccc(Cl)c2c(=O)n1-c1ccccc1 [duvelisib]
# Procedure, shortened: as §1
# gandotinib = compound: Cc1cc(Nc2cc(CN3CCOCC3)c3nc(C)c(Cc4ccc(Cl)cc4F)n3n2)n[nH]1 [gandotinib]
# Procedure, shortened: as §1
# tozasertib = compound: Cc1cc(Nc2cc(N3CCN(C)CC3)nc(Sc3ccc(NC(=O)C4CC4)cc3)n2)n[nH]1 [tozasertib]
# Procedure, shortened: as §1
# doramapimod = compound: Cc1ccc(-n2nc(C(C)(C)C)cc2NC(=O)Nc2ccc(OCCN3CCOCC3)c3ccccc23)cc1 [doramapimod]
# Procedure, shortened: as §1
# bafetinib = compound: Cc1ccc(NC(=O)c2ccc(CN3CC[C@H](N(C)C)C3)c(C(F)(F)F)c2)cc1Nc1nccc(-c2cncnc2)n1 [bafetinib]
# Procedure, shortened: as §1
# [2] = compound: Cc1cccc(CC(=O)N2CCc3c2ccc(-c2cn(C)c4ncnc(N)c24)c3F)n1
# Procedure, shortened: as §1
Target,log2 fold change (lapatinib),log2 fold change (pictilisib),log2 fold change (crizotinib),log2 fold change [1],log2 fold change (duvelisib),log2 fold change (gandotinib),log2 fold change (tozasertib),log2 fold change (doramapimod),log2 fold change (bafetinib),log2 fold change [2]
NOP16 (UniProt Q9Y3C1),inactive: 0.006,inactive: -0.035,inactive: 0.002,inactive: 0.048,inactive: 0.045,inactive: -0.097,inactive: 0.035,inactive: -0.005,inactive: -0.026,inactive: -0.085
NOLC1 isoform 3 (UniProt Q14978),inactive: 0.005,inactive: 0.06,inactive: -0.083,inactive: -0.053,inactive: 0.191,inactive: 0.133,inactive: -0.022,inactive: -0.062,inactive: -0.092,inactive: 0.022
NT5DC2 isoform 2 (UniProt Q9H857),inactive: -0.036,inactive: -0.019,inactive: 0.004,inactive: -0.018,inactive: -0.01,inactive: 0.021,inactive: -0.019,inactive: -0.029,inactive: -0.027,inactive: -0.027
NT5C (UniProt Q8TCD5),inactive: 0.02,inactive: 0.056,inactive: 0.016,inactive: 0.162,inactive: 0.025,inactive: -0.029,inactive: -0.001,inactive: 0.002,inactive: 0.069,inactive: -0.059
NPM3 (UniProt O75607),inactive: 0.087,inactive: 0.053,inactive: -0.02,inactive: -0.201,inactive: 0.014,inactive: 0.068,inactive: -0.036,inactive: 0.027,inactive: 0.04,inactive: 0.164
NUDT2 (UniProt P50583),inactive: 0.006,inactive: -0.031,inactive: -0.043,inactive: -0.025,inactive: 0.002,inactive: 0.03,inactive: -0.003,inactive: 0.051,inactive: 0.015,inactive: 0.032
NSUN6 (UniProt Q8TEA1),inactive: 0.044,inactive: -0.034,inactive: -0.002,inactive: -0.019,inactive: -0.014,inactive: 0.009,inactive: -0.025,inactive: -0.018,inactive: -0.055,inactive: 0.008
NPC1 (UniProt O15118),inactive: 0,inactive: 0.006,inactive: 0,inactive: -0.051,inactive: 0.051,inactive: 0.034,inactive: 0.006,inactive: 0.022,inactive: -0.035,inactive: 0.02
NR2C2 isoform 2 (UniProt P49116),inactive: -0.014,inactive: -0.025,inactive: -0.004,inactive: 0.064,inactive: -0.014,inactive: -0.079,inactive: -0.005,inactive: -0.004,inactive: 0.145,inactive: -0.025
NME6 (UniProt O75414),inactive: -0.02,inactive: 0.019,inactive: 0.056,inactive: -0.011,inactive: -0.014,inactive: 0.003,inactive: 0.068,inactive: -0.022,inactive: -0.002,inactive: -0.014
NOMO1 (UniProt Q15155),inactive: 0.005,inactive: -0.004,inactive: -0.077,inactive: 0.314,inactive: 0.057,inactive: -0.158,inactive: -0.302,inactive: -0.06,inactive: 0.014,inactive: -0.321
NPM1 (UniProt P06748),inactive: -0.017,inactive: 0.021,inactive: 0.032,inactive: 0.037,inactive: 0.004,inactive: 0.007,inactive: 0.01,inactive: -0.042,inactive: 0.032,inactive: -0.051
NUCB1 (UniProt Q02818),inactive: 0.006,inactive: -0.06,inactive: 0.008,inactive: -0.017,inactive: 0.004,inactive: 0.048,inactive: 0.006,inactive: -0.001,inactive: -0.011,inactive: -0.003
NUDT7 (UniProt P0C024),inactive: -0.038,inactive: -0.068,inactive: -0.08,inactive: 0.116,inactive: -0.012,inactive: -0.115,inactive: -0.034,inactive: -0.015,inactive: 0.014,inactive: 0.095
NMD3 (UniProt Q96D46),inactive: -0.018,inactive: 0.019,inactive: -0.027,inactive: -0.033,inactive: 0.008,inactive: 0.019,inactive: -0.037,inactive: 0.008,inactive: -0.002,inactive: 0.028
NT5DC3 (UniProt Q86UY8),inactive: 0.03,inactive: -0.012,inactive: 0.014,inactive: -0.073,inactive: 0.005,inactive: 0.02,inactive: 0.008,inactive: -0.037,inactive: -0.006,inactive: 0.015
NUCKS1 (UniProt Q9H1E3),inactive: 0.003,inactive: 0.008,inactive: 0.006,inactive: -0.026,inactive: 0.032,inactive: 0.031,inactive: -0.028,inactive: -0.008,inactive: 0.001,inactive: 0.02
NSDHL (UniProt Q15738),inactive: 0.034,inactive: -0.02,inactive: 0.104,inactive: -0.058,inactive: 0.047,inactive: 0.18,inactive: 0.007,inactive: 0.137,inactive: 0.011,inactive: -0.006
NSMCE2 (UniProt Q96MF7),inactive: -0.003,inactive: 0.013,inactive: 0.043,inactive: 0.055,inactive: -0.026,inactive: 0.014,inactive: 0.066,inactive: 0.009,inactive: -0.151,inactive: -0.137
NMT1 (UniProt P30419),inactive: 0.02,inactive: 0.005,inactive: -0.006,inactive: 0.016,inactive: -0.023,inactive: -0.021,inactive: 0.012,inactive: -0.015,inactive: 0.09,inactive: -0.034
NMI (UniProt Q13287),inactive: -0.021,inactive: -0.022,inactive: 0.015,inactive: 0.006,inactive: -0.005,inactive: -0.006,inactive: 0.007,inactive: -0.03,inactive: -0.001,inactive: -0.041
NUP155 (UniProt O75694),inactive: -0.003,inactive: -0.055,inactive: -0.139,inactive: 0.004,inactive: 0.07,inactive: -0.12,inactive: 0.043,inactive: 0.101,inactive: -0.018,inactive: 0.032
NPC2 (UniProt P61916),inactive: 0.036,inactive: -0.014,inactive: -0.103,inactive: -0.209,inactive: 0.008,inactive: 0.068,inactive: -0.159,inactive: 0.034,inactive: 0.082,inactive: 0.217
NTMT1 (UniProt Q9BV86),inactive: -0.008,inactive: -0.008,inactive: -0.009,inactive: 0.079,inactive: -0.026,inactive: -0.113,inactive: -0.041,inactive: 0.025,inactive: 0.025,inactive: -0.045
NMRAL1 (UniProt Q9HBL8),inactive: -0.003,inactive: 0.105,inactive: -0.017,active: 0.695,inactive: 0.08,inactive: -0.01,inactive: -0.051,inactive: 0.036,inactive: 0.005,inactive: 0.011
NOP9 (UniProt Q86U38),inactive: 0.021,inactive: -0.039,inactive: -0.138,inactive: 0.178,inactive: 0.091,inactive: -0.118,inactive: 0.206,inactive: 0.039,inactive: -0.06,inactive: -0.11
NUDT12 (UniProt Q9BQG2),inactive: -0.006,inactive: 0.021,inactive: -0.027,inactive: 0.002,inactive: 0.004,inactive: -0.047,inactive: 0.04,inactive: 0.014,inactive: 0.008,inactive: -0.047
NUP107 (UniProt P57740),inactive: 0.019,inactive: -0.064,inactive: -0.048,inactive: -0.046,inactive: -0.012,inactive: -0.028,inactive: 0.003,inactive: 0.038,inactive: -0.038,inactive: 0.095
NNT (UniProt Q13423),inactive: -0.047,inactive: -0.046,inactive: 0.03,inactive: 0.013,inactive: 0.039,active: -0.445,inactive: -0.014,inactive: 0.011,inactive: -0.006,inactive: 0.003
NOB1 (UniProt Q9ULX3),inactive: 0.027,inactive: 0.01,inactive: -0.019,active: 0.283,inactive: -0.033,inactive: -0.084,inactive: 0.011,inactive: -0.023,inactive: -0.041,inactive: -0.048

# A second format for part of the listing above:
Target | log2 fold change (lapatinib) | log2 fold change (pictilisib) | log2 fold change (crizotinib) | log2 fold change [1] | log2 fold change (duvelisib) | log2 fold change (gandotinib) | log2 fold change (tozasertib) | log2 fold change (doramapimod) | log2 fold change (bafetinib) | log2 fold change [2]
NPC1 (UniProt O15118) | inactive: 0 | inactive: 0.006 | inactive: 0 | inactive: -0.051 | inactive: 0.051 | inactive: 0.034 | inactive: 0.006 | inactive: 0.022 | inactive: -0.035 | inactive: 0.02
NR2C2 isoform 2 (UniProt P49116) | inactive: -0.014 | inactive: -0.025 | inactive: -0.004 | inactive: 0.064 | inactive: -0.014 | inactive: -0.079 | inactive: -0.005 | inactive: -0.004 | inactive: 0.145 | inactive: -0.025
NME6 (UniProt O75414) | inactive: -0.02 | inactive: 0.019 | inactive: 0.056 | inactive: -0.011 | inactive: -0.014 | inactive: 0.003 | inactive: 0.068 | inactive: -0.022 | inactive: -0.002 | inactive: -0.014
NOMO1 (UniProt Q15155) | inactive: 0.005 | inactive: -0.004 | inactive: -0.077 | inactive: 0.314 | inactive: 0.057 | inactive: -0.158 | inactive: -0.302 | inactive: -0.06 | inactive: 0.014 | inactive: -0.321
NPM1 (UniProt P06748) | inactive: -0.017 | inactive: 0.021 | inactive: 0.032 | inactive: 0.037 | inactive: 0.004 | inactive: 0.007 | inactive: 0.01 | inactive: -0.042 | inactive: 0.032 | inactive: -0.051
NUCB1 (UniProt Q02818) | inactive: 0.006 | inactive: -0.06 | inactive: 0.008 | inactive: -0.017 | inactive: 0.004 | inactive: 0.048 | inactive: 0.006 | inactive: -0.001 | inactive: -0.011 | inactive: -0.003
NUDT7 (UniProt P0C024) | inactive: -0.038 | inactive: -0.068 | inactive: -0.08 | inactive: 0.116 | inactive: -0.012 | inactive: -0.115 | inactive: -0.034 | inactive: -0.015 | inactive: 0.014 | inactive: 0.095
NMD3 (UniProt Q96D46) | inactive: -0.018 | inactive: 0.019 | inactive: -0.027 | inactive: -0.033 | inactive: 0.008 | inactive: 0.019 | inactive: -0.037 | inactive: 0.008 | inactive: -0.002 | inactive: 0.028
